Assay results published in PubChem BioAssay AID2685 (National Center for Advancing Translational Sciences (NCATS), 2010).
This is one part of the list. These are further read-outs of the screen, such as a control signal, another cell line or another target. No call is given for them. Compounds called inactive in the main read-out are mostly missing here. The note in brackets gives the kind of curve behind each potency; many fits are weak.

Test: qHTS Assay for Lipid Storage Modulators in Drosophila S3 Cells;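 for cell number change: cells counted by Cell Tracker Red CMTPX staining in the red channel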
Conditions: BODIPY lipid droplet fluorescence, 18-24 h; for cell number change: measured here: cell count max response, cells fed with added oleic acid
How it was run: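 Laser-scanning cytometry quantifies lipid droplet accumulation (500–530 nm total intensity; droplet/cell object ratio) in oleic acid-fed (400 uM added) Drosophila S3 cells treated with a concentration series. 20 uM Triacsin C defined 100% inhibition.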

[1] = measured here: lipid fluorescence (Fed channel) AC50, cells fed with added oleic acid
[2] = measured here: cell number channel AC50, cells fed with added oleic acid

| SMILES | cell number change | AC50 [1] | AC50 [2] |
| --- | --- | --- | --- |
| O=C(OCCN1CCOCC1)c1ccc(OCCN2CCOCC2)cc1 | 22.9% | 7.31 µM [falling, single point] | – |
| CCOC(=O)C(=NCC1CCCO1)NNc1cc(Cl)ccc1Cl (centres undefined) | -0.0735% | – | – |
| O=C(CCC(=O)CCN1CCCCC1)CCN1CCCCC1 | -18.2% | 4.61 µM [falling, single point] | – |
| O=Cc1ccc(-n2cncn2)cc1 | -2.04% | 0.82 µM [falling, single point] | – |
| Cc1ccc(-n2c(SCC(=O)NCc3ccco3)nc3nc4c(cc3c2=O)COC(C)(C)C4)cc1 | 6.53% | 8.2 µM [rising, partial curve] | – |
| O=C(Nc1ccc(NC(=O)C2CC2)nc1)c1cccnc1 | 70.1% | 4.11 µM [rising, single point] | 16.4 µM [rising, partial curve] |
| Cc1cccnc1NC(=O)c1cccc(S(=O)(=O)N2CCN(c3ccc(F)cc3)CC2)c1 | 8.22% | – | – |
| O=C1CN(C(=O)COC(=O)CNC(=O)c2ccc(Br)o2)c2ccccc2N1 | 63.7% | 5.8 µM [falling, single point] | 32.6 µM [rising, single point] |
| COC(=O)c1c(C)[nH]c(C(=O)OCC(=O)NCC(C)C)c1C | -3.55% | 0.731 µM [rising, full curve, poor fit] | – |
| COc1cc2c(cc1OC)n(CC(=O)NC1CCCCCC1)n1c(C)cc(=O)nc21 | – | 6.51 µM [falling, single point] | – |
| Cc1ccc(F)c(Cn2cnc3c(cnn3C(C)(C)C)c2=O)c1Cl | -30.8% | 32.6 µM [falling, single point] | 0.00411 µM [falling, full curve, poor fit] |
| CCNc1nc(C)c(CN(C(C)=O)c2ccccc2)nc1C#N | 14.5% | 1.16 µM [rising, full curve, poor fit] | – |
| COc1ccc(NC(=O)Cc2nnc(SCC(=O)Nc3ccc(F)cc3)n2C)cc1 | 9.83% | 18.4 µM [rising, single point] | – |
| O=C(CCn1cnnn1)N1CCCC(Nc2ccc(F)c(F)c2)C1 (centres undefined) | 18.5% | 4.11 µM [rising, full curve] | – |
| Cc1cc(C)c(OCC(=O)OC(C)C(=O)NCc2ccccc2)c(C)c1 (centres undefined) | -16.5% | – | – |
| Cc1ccsc1C(=O)NCC(C)(C)N1CCOCC1 | -19.7% | – | – |
| Cc1ccc(-c2nnc(NC(=O)C3=COCCO3)o2)c(C)c1 | 69.9% | – | 16.4 µM [rising, partial curve, poor fit] |
| CCOC(=O)N1CCN(C(=O)c2ccc3nc4ccc(Cl)cc4c(=O)n3c2)CC1 | – | 6.51 µM [rising, single point] | – |
| CC(C)CC(C(=O)NC1CCCCC1)N(Cc1cccs1)C(=O)c1snc(C(N)=O)c1N (centres undefined) | 121% | 5.8 µM [rising, full curve] | 10.3 µM [rising, partial curve] |

| SMILES | cell number change | AC50 [1] | AC50 [2] |
| --- | --- | --- | --- |
| COc1ccc(/C=N/NC(=O)c2cccnc2)cc1CN1CCOCC1 | 8.64% | – | 2.06 µM [rising, partial curve, poor fit] |
| Cc1ccc(NC(=O)C2C3C=CC4(O3)C2C(=O)N(CCCN2CCCC2)C4C(=O)NC2CCCCC2)cc1Cl (centres undefined) | 30.2% | 23.1 µM [rising, partial curve, poor fit] | – |
| CCn1c(SCC(=O)N(C)CCC#N)nc2cc(S(=O)(=O)N3CCOCC3)ccc21 | 2% | – | – |
| CC(C)(C)OC(=O)CC[C@@H](C(=O)N1CCN(C(=O)OC(C)(C)C)CC1)n1cc(C(CO)NC(=O)OC(C)(C)C)nn1 (some centres undefined) | -29.6% | – | – |
| O=C(CN1C(=O)/C(=C/c2cccc(Br)c2)SC1=S)N1CCCC1 | 44.2% | 29.1 µM [rising, single point] | 29.1 µM [rising, single point] |
| O=C(C(=O)N1CCc2ccccc2C1)N1CCc2ccccc2C1 | 36% | 0.92 µM [falling, full curve, poor fit] | 3.66 µM [rising, full curve] |
| O=C(Cn1c(=O)sc2ccccc21)N1CCOCC1 | 9.49% | 0.00731 µM [falling, full curve] | – |
| CCCCSc1nnc(C)c(=O)[nH]1 | 10.2% | 6.51 µM [rising, single point] | – |
| CC(NC(=O)NCCCn1ccnc1)(C(F)(F)F)C(F)(F)F | – | – | 0.92 µM [rising, full curve] |
| CN(C)S(=O)(=O)c1ccc(C(=O)NCC2(N3CCCCC3)CCCCC2)cc1 | 23.4% | – | 2.06 µM [falling, partial curve, poor fit] |
| CCCCn1nc2cc(C(=O)NC3CCc4ccccc43)ccc2c1OCC (centres undefined) | 5.85% | 23.1 µM [rising, single point] | 0.731 µM [rising, full curve] |
| Cc1ccccc1Nc1nc(N)nc(CN(C)Cc2ccccc2Cl)n1 | -18.6% | 2.06 µM [rising, full curve] | – |
| CCOC(=O)C1CCN(c2c(NCCCN(CC)Cc3ccccc3)c(=O)c2=O)CC1 | -20.7% | 6.51 µM [falling, single point] | – |
| N#C/C(=C\c1ccc(C#N)cc1)C(=O)c1ccccc1 | -47.6% | 6.51 µM [falling, partial curve] | 4.61 µM [falling, partial curve] |
| c1ccc(-n2c(Sc3cnccn3)nnc2-c2cccs2)cc1 | – | 0.517 µM [rising, partial curve, poor fit] | – |
| COc1ccccc1/C=C/CN1CCN(c2ccccc2)CC1 | 89.9% | – | 23.1 µM [rising, single point] |
| COC(=O)c1ccc(NC(=O)CSc2nc(C)cc(=O)[nH]2)cc1 | – | 1.84 µM [falling, partial curve] | 0.82 µM [falling, full curve, poor fit] |
| CCCc1ccc(OC(=O)c2cccs2)cc1 | -14.8% | – | – |
| O=C(CSc1nnc(-c2ccccc2O)n1Cc1ccccc1)NNC(=O)c1ccccc1O | -36.2% | 29.1 µM [falling, single point] | 14.6 µM [falling, single point] |

| SMILES | cell number change | AC50 [1] | AC50 [2] |
| --- | --- | --- | --- |
| CC(C)Nc1nc(NC(C)C)nc(N(C#N)CCOc2ccc(Cl)cc2Cl)n1 | -17% | 20.6 µM [falling, single point] | – |
| O=C(Nc1ccc(Br)cc1)N1CCCCCCC1 | 4.5% | – | 0.146 µM [falling, full curve, poor fit] |
| C[C@H](NC(=O)C1CC(=O)N(c2ccc(F)cc2)C1)C(=O)N1CCCCC1 (some centres undefined) | -16.2% | 0.411 µM [rising, single point] | 2.31 µM [rising, partial curve, poor fit] |
| Cc1ccc(N2C(=O)N3[C@H](c4ccc(F)cc4)[C@@H]4C(=O)N(C5CCCCC5)C(=O)[C@@H]4[C@]3(C)C2=O)cc1 | 0.647% | 7.31 µM [rising, partial curve] | – |
| O=C(Cc1ccc(F)cc1)OCN1C(=O)c2ccccc2C1=O | 13.5% | 29.1 µM [falling, single point] | – |
| COc1ccccc1CNC(=O)[C@@H]1CCCN1C(=O)[C@@H]1Cc2ccccc2CN1C(=O)OC(C)(C)C | 8.02% | 0.58 µM [falling, single point] | – |
| Cc1cc(C)cc(C(=O)NC(CC(N)=O)c2ccc(N3CCC(Cc4ccccc4)CC3)c([N+](=O)[O-])c2)c1 (centres undefined) | 12% | 29.1 µM [falling, single point] | – |
| O=S1(=O)c2cccc3cccc(c23)N1Cc1nnc(-c2ccccc2Br)o1 | -8.96% | – | – |
| COc1ccc(OC)c(-c2csc(N(C)C(=O)Cc3ccccc3)n2)c1 | -10.9% | 0.411 µM [falling, full curve, poor fit] | – |
| Fc1cccc(CCN2CCNC[C@@H]2CC2CCCCC2)c1 | 17.4% | 1.03 µM [falling, single point] | 1.16 µM [falling, single point] |
| C/C(=N\NC(=S)NCCc1ccccc1)c1cccc(Br)c1 | 10.7% | 17.8 µM [rising, single point] | – |
| CCOc1ccc(-n2ccnc(SCC(=O)Nc3ccc(OC)cc3OC)c2=O)cc1 | 65.3% | – | 1.16 µM [rising, partial curve] |
| CCCCNc1nnc(SCC(=O)c2c[nH]c3ccccc23)s1 | -38.5% | 18.4 µM [rising, single point] | – |
| CC1CC(N(C(=O)c2ccc(Cl)cc2)c2ccccc2)c2ccccc2N1C(=O)c1ccco1 (centres undefined) | – | 0.58 µM [falling, single point] | 0.651 µM [falling, single point] |
| COc1ccc(OC)c(CCNC(=O)CS(=O)(=O)Cc2nc(-c3ccc(C)cc3)oc2C)c1 | 21.2% | 23.1 µM [rising, single point] | – |
| O=C(NCc1ccccn1)c1ccc(OC2CCN(Cc3ccc(Cl)s3)CC2)cc1 | 0.567% | 3.26 µM [rising, partial curve] | 6.51 µM [rising, partial curve, poor fit] |
| OCC[C@@H]1C[C@@H](O)[C@H](O)[C@@]2(Cc3ccccc3CCO2)O1 | 4.19% | – | – |
| Cn1c(=S)n(/N=C/c2ccc3c(c2)OCO3)c2ccccc21 | 54.4% | 1.3 µM [rising, full curve] | 0.00731 µM [rising, full curve, poor fit] |
| Cc1ccc(C(=O)Nc2nnc(-c3ccncc3)o2)cc1 | – | 16.4 µM [falling, single point] | 6.51 µM [falling, single point] |

Filtered by structure, the entries above with a furan ring, fused or not (three)

| SMILES | cell number change | AC50 [1] | AC50 [2] |
| --- | --- | --- | --- |
| Cc1ccc(-n2c(SCC(=O)NCc3ccco3)nc3nc4c(cc3c2=O)COC(C)(C)C4)cc1 | 6.53% | 8.2 µM [rising, partial curve] | – |
| O=C1CN(C(=O)COC(=O)CNC(=O)c2ccc(Br)o2)c2ccccc2N1 | 63.7% | 5.8 µM [falling, single point] | 32.6 µM [rising, single point] |
| CC1CC(N(C(=O)c2ccc(Cl)cc2)c2ccccc2)c2ccccc2N1C(=O)c1ccco1 (centres undefined) | – | 0.58 µM [falling, single point] | 0.651 µM [falling, single point] |
